# Primary screen of a compound library

Data taken from ChEMBL document CHEMBL3988442, “University of Dundee, Small-Polar-MMV Screening Library” (2021).

Mtb growth Cornell: 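Whole-cell assay for inhibitors of Mycobacterium tuberculosis growth, labelled Cornell in the record; the read-out is not stated. The concentration is filed as 10 mM, unlikely as a test dose, so the dose is not known. The record gives no direction; compounds strong in two other growth screens of this library score well above the rest, so higher reads as stronger inhibition. About 53,000 compounds were tested under these conditions; 1.7% (about 900) showed 50% or more at least once.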
Mtb heat-shock: 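Assay on Mycobacterium tuberculosis, filed only as a heat shock assay from Cornell; the read-out is not stated. The concentration is filed as 10 mM, unlikely as a test dose, so the dose is not known. The record gives no direction; compounds that gave an IC50 in retests scored well above the rest, so higher reads as stronger inhibition. Of about 69,000 compounds tested this way, about 930 (1.4%) reached 50% or more in at least one test.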

Each number is a percent effect as filed.
The controls that fix the scale are not given in the record; negative values are as filed.
Compounds were drawn at random from those tested, without regard to their results.
A dash means the value is not listed here; it may have been measured.

| structure | Mtb growth Cornell | Mtb heat-shock |
|---|---|---|
| `N#Cc1cn(CCCN2CCc3ccccc3C2)c(=O)[nH]c1=O` | -8.804 | 27.01 |
| `Cc1cnn(CC2CCCN2C(=O)c2cnc3n[nH]c(C)c3c2)c1` (centres unmarked) | - | -21.26 |
| `COCCn1ccc(NC(=O)Nc2ccccn2)n1` | -63.53 | 7.502 |
| `CC(C)CC1SCC(=O)Nc2c1cnn2-c1ccccc1F` (centres unmarked) | 25.49 | 22.72 |
| `CCNC(=O)N(C)C(c1cccc(F)c1)c1ccccn1` (centres unmarked) | 12.49 | 2.855 |
| `[H][C@@]12C[C@@H](OC)C[C@]1([H])CN(C(=O)c1cccc3c1OCCO3)C2` | -13.28 | -19.25 |
| `COCCc1noc(C2CCCN(c3ncnc4c3CCC4)C2)n1` (centres unmarked) | 2.124 | -2.426 |
| `Cc1ccccc1N1CCN(C(=O)CC(C)C)CC1` | - | -19.14 |
| `O=C(O)C(F)(F)F.[H][C@@]12CCN(c3cccnc3)C[C@]1([H])CN(C(=O)CC1CCCC1)C2` | 9.672 | -8.471 |
| `[H][C@@]12CCN(Cc3cnn(C)c3)C[C@@]1([H])[C@H](C(=O)Nc1cnccn1)CCO2` | -3.729 | -14.55 |
| `CC(=O)N1CCCN(C(=O)NCCCc2cn[nH]c2C)CC1` | 16.91 | 4.702 |
| `CC1(C)CN(C(=O)Nc2ccc(Cn3cccn3)cc2)CCO1` | 18.96 | -2.137 |
| `CC(C)(C)c1ccc(=O)n(CN2CCCC(C(F)(F)F)C2)n1` (centres unmarked) | - | -1.255 |
| `CNC(=O)c1cc2c(nc1NCC(C)C)CCN(S(=O)(=O)C1CC1)CC2` | 9.947 | -30.48 |
| `COC[C@]1(O)CCN(C(=O)c2cccc(CN(C)C)c2)CC1(C)C` | 12.91 | 11.1 |
| `Cc1nn(C)c(N2CCOCC2)c1CNC(C)c1ccccn1` (centres unmarked) | 15.62 | 10.79 |
| `CCNC(=O)CNS(=O)(=O)Cc1cc(-c2ccccc2)no1` | 8.324 | 23.75 |
| `Cc1n[nH]c(C)c1Sc1ccccc1NC(=O)N1CCN(C)CC1` | -22.86 | -34.45 |
| `COc1c(CNC(c2cccc(F)c2)c2nccn2C)c(C)nn1C` (centres unmarked) | - | -20.66 |
| `COCCN1CCn2c(nc3cc(C(=O)NC(C)C)ccc32)C1` | - | 8.011 |
| `[H][C@@]12CN(Cc3cnn(C)c3)C[C@]1([H])OCCN2CC1CCCC1` | 12.89 | -24.17 |
| `NC(=O)CN(Cc1ccc(Br)cc1)C(=O)c1ccccn1` | -15.26 | -19.99 |
| `c1cc(-c2ccc(CN3CCC4(CCNCC4)CC3)s2)[nH]n1` | -47.16 | -17.54 |
| `N#Cc1ccc(OC2CCN(C(=O)c3ccc(Br)o3)CC2)nc1` | -26.52 | -10.47 |
| `COc1cc(C2CC(=O)Nc3c2c(=O)[nH]n3C2CCCC2)ccc1O` (centres unmarked) | -3.782 | -4.668 |
| `O=C(C1CC1)N1CC[C@H](c2nc3ccccc3o2)C1` | - | -8.852 |
| `COCCN1CCCC1Cn1nc(C)cc1C` (centres unmarked) | - | -13.89 |
| `Cc1cc(C)c(C(=O)N2CCCC(C(=O)CCc3ccccc3)C2)cn1` (centres unmarked) | 16 | 5.92 |
| `CSCCC1c2nc[nH]c2CCN1Cc1cncn1C` (centres unmarked) | 7.568 | -28.16 |
| `O=c1[nH]c2nc(N3CCCC3)ncc2c(=O)n1-c1cccc(F)c1` | 0.8348 | -3.029 |
| `CC(=O)N1CCN(CCNC(=O)NC(C)Cn2ccnc2)CC1` (centres unmarked) | -11.63 | -3.035 |
| `O=C(O)C(F)(F)F.[H][C@@]12CCCO[C@]1([H])[C@H](NC(=O)N(C)C)CN2C1CCOCC1` | 7.17 | 1.602 |
| `CCc1nc(CNC(=O)C2CCC(=O)N(Cc3ccccc3F)C2)no1` (centres unmarked) | 3.939 | 10.84 |
| `Cn1ccc(NC2CCN(C3CC3)C2=O)n1` (centres unmarked) | -25.77 | -15.5 |
| `Cc1nc(C)n(CC2CN(c3ncnc4[nH]ccc34)CCO2)n1` (centres unmarked) | - | -4.377 |
| `O=C(O)C(F)(F)F.[H][C@@]12CCN(Cc3nccs3)[C@]1([H])C[C@@H](C(=O)N(C)C)O2` | -1.856 | -3.796 |
| `Cc1csc2c(C3CCN(C(=O)Cn4cncn4)CC3)nc(C)n12` | -27.76 | 4.596 |
| `COc1ccc(F)c(NCc2cnn(C3CCS(=O)(=O)C3)c2)c1` (centres unmarked) | -2.415 | 35.61 |
| `Cc1cnn(CC2CCCN2C(=O)c2cc(Cl)ccc2F)c1` (centres unmarked) | -28.72 | -12.7 |
| `Cc1cc(N2CCCC2c2nnc3n2CCCCC3)nc(N)n1` (centres unmarked) | -31.59 | -8.114 |
| `COc1ncc(NS(=O)(=O)c2ccc(OC)c(C)c2)c(OC)n1` | -7.929 | 1.795 |
| `Cn1c2c(ccc1=O)CC(Nc1ncc(F)cn1)CC2.O=C(O)C(F)(F)F` (centres unmarked) | 2.675 | -11.4 |
| `COCCNc1ccc(CC2CCCNC2)cn1.Cl` (centres unmarked) | 11.81 | -14.31 |
| `CC(C)(CNc1cn[nH]c(=O)c1Cl)c1ccc2c(c1)OCCO2` | 5.554 | -2.261 |
| `Cc1ccc(C)c(CC(=O)NC2CCS(=O)(=O)CC2)c1` | -0.8027 | 8.212 |
| `COc1ccc(C2OC(COc3ccc(C)cc3)=NN2C(C)=O)cc1` (centres unmarked) | 5.764 | 21.99 |
| `Cc1cc(C(=O)N2CCOC[C@H](Oc3cnccn3)C2)c(C(F)(F)F)o1` | - | 2.136 |
| `COc1cccc(N2CC3(CCN(Cc4nccn4C)C3)CC2=O)c1.O=C(O)C(F)(F)F` (centres unmarked) | 19.99 | -0.08782 |
| `O=S1(=O)c2ccccc2OCC2(CCN(CCO)CC2)CN1CC1CC1` | 10.85 | -31.44 |
| `CC(c1nc(C(C)(C)C)no1)N1CCN(c2ccc(C#N)cn2)CC1` (centres unmarked) | - | -15.92 |
| `CCN(Cc1ccc2c(c1)OCO2)C(=O)c1ccc(=O)n(C)c1` | -14.57 | -12.59 |
| `Clc1ccccc1OC1CN(CC2CCOC2)C1` (centres unmarked) | 27.65 | -7.115 |
| `CC(C)(C)NC(=O)C1CSCN1S(=O)(=O)c1cccc(F)c1` (centres unmarked) | 2.276 | 4.547 |
| `Cc1cc(CN2CCc3nn(C)c(=O)cc3C2)on1` | 3.795 | 10.71 |
| `N#Cc1ccc(N2CCCC(CO)(CCOc3ccccc3)C2)nc1` (centres unmarked) | 15.98 | -6.183 |
| `Cc1ccc(C2C3=C(COC3=O)Nc3[nH]nc(C)c32)cc1C` (centres unmarked) | - | -3.03 |
| `Cn1cc(CCCNC(=O)NC2CCN(c3ccccc3)C2=O)cn1` (centres unmarked) | - | -28.76 |
| `Cc1nc(N2CCOCC2)nc(C)c1NC(=O)COc1ccccc1` | 18.82 | 11.43 |
| `COc1cc2c(cc1-c1nc3c(cnn3C(C)C)[nH]1)OCO2` | - | 14.01 |
| `Cc1nc(C(=O)N(C)C2CC(=O)N(Cc3ccccc3)C2=O)cs1` (centres unmarked) | 2.966 | -15.38 |
| `CC(C)n1c2ccccc2c2c1cc(C(=O)NCCO)n2C(=O)N(C)C` | -15.41 | 20.51 |
| `CC(C)CCOCCNC(=O)Nc1cc(C(F)(F)F)c[nH]c1=O` | 22.57 | 62.92 |
| `Cl.O=C(NCc1cccc(Cl)c1)C1=NOC2(CCNC2)C1` (centres unmarked) | 4.188 | -31.4 |
| `CCN1CCC2(C1)CN(S(=O)(=O)c1cn(C)cn1)C2.O=C(O)C(F)(F)F.O=C(O)C(F)(F)F` | -2.946 | 11.7 |
| `CCn1cc(-c2n[nH]c(=O)n2-c2ccc3c(c2)OCO3)c(C)n1` | -62.5 | -1.915 |
| `CC(C)C1CN(Cc2c[nH]cn2)CCCN1CC1CC1` (centres unmarked) | 11.1 | 18.63 |
| `Cc1nn(C)c(C)c1C(C)NCc1ccsc1` (centres unmarked) | -30.02 | -13.57 |
| `CCCN1C(=O)c2ccccc2C1OC` (centres unmarked) | 5.318 | 7.331 |
| `CC(C)CC(=O)N1CCCn2cnc(CN3CCCC3=O)c2C1` | 16.81 | -8.98 |
| `Cc1cc(-c2ccccc2C(=O)O)nc(C2CCCN2S(C)(=O)=O)n1` (centres unmarked) | -15.16 | 8.607 |
| `Cn1cccc1C(=O)N1CCCn2nc(CCC(=O)NC3CC3)cc2C1` | -2.452 | 5.265 |
| `COc1ccccc1CN1CC[C@]2(C[C@H](OC)CO2)C1.O=C(O)C(F)(F)F` | - | -14.52 |
| `[H][C@]12CN(C)CCN1C(=O)N(C1CCCCC1)C2` | -11.1 | 4.994 |
| `COc1cccc(OC)c1-c1ccnc2cc(CC(=O)NC(C)C)nn12` | 15.54 | -21.7 |
| `CN(C)CCOc1ccc(CNC(=O)c2cccc(Cl)c2Cl)cc1` | - | -4.827 |
| `CC(=O)N1Cc2ccnn2CC(C(=O)NCc2cccnc2)C1.O=C(O)C(F)(F)F` (centres unmarked) | -1.297 | 37.04 |

Repeated from the top, 5 entries:

structure,Mtb growth Cornell,Mtb heat-shock
N#Cc1cn(CCCN2CCc3ccccc3C2)c(=O)[nH]c1=O,-8.804,27.01
Cc1cnn(CC2CCCN2C(=O)c2cnc3n[nH]c(C)c3c2)c1 (centres unmarked),-,-21.26
COCCn1ccc(NC(=O)Nc2ccccn2)n1,-63.53,7.502
CC(C)CC1SCC(=O)Nc2c1cnn2-c1ccccc1F (centres unmarked),25.49,22.72
CCNC(=O)N(C)C(c1cccc(F)c1)c1ccccn1 (centres unmarked),12.49,2.855